According to paper PMC5844954:
These are yes or no findings as the source states them, for the method shown. For some assays here: In cells and extracts the contact can be indirect. Some entries that bind do so weakly or less than the wild type. For some assays here: Sequences can lack the tags named with a protein.

Protein sequences, listed by entry. Tags and fused reporters are not part of them. Lines headed by an entry give the natural chain unless they say otherwise; changes in a name come on top. Chains listed by the source or under a name are the forms on record and can include a tag or linker. Residues count along the entry.
UniProt Q8TEW0: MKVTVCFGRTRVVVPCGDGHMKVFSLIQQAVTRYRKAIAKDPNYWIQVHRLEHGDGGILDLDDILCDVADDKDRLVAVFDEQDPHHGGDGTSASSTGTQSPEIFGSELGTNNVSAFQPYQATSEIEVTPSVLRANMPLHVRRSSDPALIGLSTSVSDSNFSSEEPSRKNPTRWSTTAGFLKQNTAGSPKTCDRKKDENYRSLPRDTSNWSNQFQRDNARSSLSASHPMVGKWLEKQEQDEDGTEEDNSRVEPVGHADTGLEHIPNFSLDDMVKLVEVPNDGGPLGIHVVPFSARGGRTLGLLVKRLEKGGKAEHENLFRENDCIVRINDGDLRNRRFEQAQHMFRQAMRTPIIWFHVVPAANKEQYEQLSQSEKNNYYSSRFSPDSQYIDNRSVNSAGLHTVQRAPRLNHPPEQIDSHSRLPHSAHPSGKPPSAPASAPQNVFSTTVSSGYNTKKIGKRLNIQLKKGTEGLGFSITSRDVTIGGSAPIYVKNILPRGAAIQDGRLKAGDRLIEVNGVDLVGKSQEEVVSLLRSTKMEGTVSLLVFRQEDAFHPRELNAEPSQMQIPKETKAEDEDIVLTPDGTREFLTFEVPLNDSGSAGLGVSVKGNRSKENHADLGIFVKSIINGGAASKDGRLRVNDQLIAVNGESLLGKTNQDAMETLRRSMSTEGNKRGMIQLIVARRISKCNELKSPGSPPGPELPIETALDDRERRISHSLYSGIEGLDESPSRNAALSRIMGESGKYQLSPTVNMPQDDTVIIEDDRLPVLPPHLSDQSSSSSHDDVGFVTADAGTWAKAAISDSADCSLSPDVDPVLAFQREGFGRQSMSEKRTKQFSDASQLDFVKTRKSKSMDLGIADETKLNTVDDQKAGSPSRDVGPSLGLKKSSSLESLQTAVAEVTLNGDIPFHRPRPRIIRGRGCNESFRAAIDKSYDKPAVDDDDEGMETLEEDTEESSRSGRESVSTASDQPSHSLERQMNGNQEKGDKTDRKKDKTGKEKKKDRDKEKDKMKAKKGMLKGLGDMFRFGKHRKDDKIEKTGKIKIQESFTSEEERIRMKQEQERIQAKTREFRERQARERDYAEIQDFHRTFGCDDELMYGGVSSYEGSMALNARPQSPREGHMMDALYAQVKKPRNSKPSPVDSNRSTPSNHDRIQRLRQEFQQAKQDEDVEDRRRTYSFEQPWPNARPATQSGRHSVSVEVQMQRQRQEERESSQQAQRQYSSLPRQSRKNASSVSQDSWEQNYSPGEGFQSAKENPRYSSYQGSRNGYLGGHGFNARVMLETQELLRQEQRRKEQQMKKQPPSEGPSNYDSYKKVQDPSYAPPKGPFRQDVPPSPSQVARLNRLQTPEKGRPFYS
GST-tagged human Par3^PDZ (three PDZ domains, residues 269-685): residues 269-685 of Q8TEW0

Assays:
[1] = target: T1, Drosophila LGN (Pins) TPR domain, residues 25-406 (Drosophila) (UniProt Q9VB22); assay: crystal structure; dLGN 25-406:Insc 283-623 complex, 3.4 Å, space group P212121, four tetramers in the asymmetric unit; both purified
T1 sequence: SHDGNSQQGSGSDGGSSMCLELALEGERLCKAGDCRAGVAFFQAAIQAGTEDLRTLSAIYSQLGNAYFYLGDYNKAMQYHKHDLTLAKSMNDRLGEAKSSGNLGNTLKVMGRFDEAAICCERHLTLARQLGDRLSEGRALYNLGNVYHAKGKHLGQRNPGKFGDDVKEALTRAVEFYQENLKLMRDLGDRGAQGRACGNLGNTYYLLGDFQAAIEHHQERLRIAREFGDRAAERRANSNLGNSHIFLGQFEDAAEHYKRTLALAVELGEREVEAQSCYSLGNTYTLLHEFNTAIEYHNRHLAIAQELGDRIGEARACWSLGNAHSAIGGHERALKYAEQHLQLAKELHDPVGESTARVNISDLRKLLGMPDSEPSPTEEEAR

[2] = target: T1, Drosophila LGN (Pins) TPR domain, residues 25-406 (Drosophila); assay: SEC-SAXS; 100 μl of complex at 20 mg/ml on Superdex-200 10/30 Increase, ESRF BM29; both purified
human Par3-GFP (human) = human Par3-GFP (human) (UniProt Q8TEW0); assay: co-IP; HEK293T co-transfected with human Insc and Par3, nocodazole 16 h, JS buffer, antibody-conjugated sepharose beads, 2 h at 4 °C (Supplementary Fig. 5)
[3] = target: GST-tagged human Par3^PDZ (three PDZ domains, residues 269-685) (human) (UniProt Q8TEW0); assay: pull-down; GST-tagged Par3^PDZ (2 μM) incubated with HEK293T lysates expressing Insc constructs, 2 h at 4 °C, JS buffer; only the target purified
[4] = target: T2, human LGN of the Insc:LGN:Gαi complex (human) (UniProt P81274); assay: SEC; Par3^PDZ123 mixed in molar excess with purified Insc:LGN:Gαi, SDS-PAGE of fractions; both purified
T2 sequence: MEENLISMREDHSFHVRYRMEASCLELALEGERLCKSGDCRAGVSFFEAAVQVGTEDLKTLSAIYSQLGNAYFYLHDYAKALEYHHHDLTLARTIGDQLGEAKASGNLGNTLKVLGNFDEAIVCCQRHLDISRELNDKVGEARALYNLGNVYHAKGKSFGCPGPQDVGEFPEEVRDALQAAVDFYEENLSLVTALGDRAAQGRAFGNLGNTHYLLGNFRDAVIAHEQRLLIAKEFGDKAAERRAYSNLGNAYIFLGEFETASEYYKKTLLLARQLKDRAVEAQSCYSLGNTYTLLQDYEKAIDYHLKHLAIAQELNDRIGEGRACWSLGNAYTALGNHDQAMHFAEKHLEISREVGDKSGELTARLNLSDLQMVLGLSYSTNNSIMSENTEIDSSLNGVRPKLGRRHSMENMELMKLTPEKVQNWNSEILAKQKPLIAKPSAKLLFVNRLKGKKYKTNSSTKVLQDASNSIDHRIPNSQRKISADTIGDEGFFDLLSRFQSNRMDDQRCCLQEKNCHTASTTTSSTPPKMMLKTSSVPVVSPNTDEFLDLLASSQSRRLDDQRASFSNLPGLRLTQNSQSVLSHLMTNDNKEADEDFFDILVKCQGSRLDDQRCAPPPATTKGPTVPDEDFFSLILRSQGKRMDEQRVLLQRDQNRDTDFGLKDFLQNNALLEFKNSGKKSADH

B1: Drosophila Inscuteable asymmetric domain, residues 283-623 (domain or fragment, UniProt Q24367 283-623)
chain: SLRFTASTSTPKSGSKIAKRGKKHPEPVASWMSEQRWAGEPEVMCTLQHKSIAQEAYKNYTITTSAVCKLVRQLQQQALSLQVHFERSERVLSGLQASSLPEALAGATQLLSHLDDFTATLERRGVFFNDAKIERRRYEQHLEQIRTVSKDTRYSLERQHYINLESLLDDVQLLKRHTLITLRLIFERLVRVLVISIEQSQCDLLLRANINMVATLMNIDYDGFRSLSDAFVQNEAVRTLLVVVLDHKQSSVRALALRALATLCCAPQAINQLGSCGGIEIVRDILQVESAGERGAIERREAVSLLAQITAAWHGSEHRVPGLRDCAESLVAGLAALLQPE
[1]
  binding: binds
[2]
  binding: binds

B2: human Insc (residues 1-532) with an N-terminal HA-tag (protein, UniProt Q1MX18-2 1-532)
chain: MMALPGGRHLDSVTLPGQRLHLMQVDSVQRWMEDLKLMTECECMCVLQAKPISLEEDAQGDLILAGGPGPGDPLQLLLKRGWVISTELRRIGQKLAQDRWARVHSMSVRLTCHARSMVSEYSAVSRNSLKEMGEIEKLLMEKCSELSAVTERCLQVENEHVLKSMKACVSETLSMLGQHFGQLLELALTREVQALVRKIDASDNIYTTESTTGNLFSLTQEGAPLCRIIAKEGGVVALFKVCRQDSFRCLYPQALRTLASICCVEEGVHQLEKVDGVLCLADILTDNSHSEATRAEAAAVVAQVTSPHLPVTQHLSSFLESMEEIVTALVKLCQEASSGEVFLLASAALANITFFDTMACEMLLQLNAIRVLLEACSDKQRVDTPYTRDQIVTILANMSVLEQCASDIIQENGVQLIMGMLSEKPRSGTPAEVAACERVQQKAAVTLARLSRDPDVAREAVRLSCMSRLIELCRSPSERNSSDAVLVACLAALRRLAGVCPEGLQDSDFQQLVQPRLVDSFLLCSNMEESFV
Human Par3-GFP (human)
  binding: binds
[3]
  binding: binds

B3: human Insc of the Insc:LGN:Gαi complex (protein, UniProt Q1MX18-2 1-532)
chain: MMALPGGRHLDSVTLPGQRLHLMQVDSVQRWMEDLKLMTECECMCVLQAKPISLEEDAQGDLILAGGPGPGDPLQLLLKRGWVISTELRRIGQKLAQDRWARVHSMSVRLTCHARSMVSEYSAVSRNSLKEMGEIEKLLMEKCSELSAVTERCLQVENEHVLKSMKACVSETLSMLGQHFGQLLELALTREVQALVRKIDASDNIYTTESTTGNLFSLTQEGAPLCRIIAKEGGVVALFKVCRQDSFRCLYPQALRTLASICCVEEGVHQLEKVDGVLCLADILTDNSHSEATRAEAAAVVAQVTSPHLPVTQHLSSFLESMEEIVTALVKLCQEASSGEVFLLASAALANITFFDTMACEMLLQLNAIRVLLEACSDKQRVDTPYTRDQIVTILANMSVLEQCASDIIQENGVQLIMGMLSEKPRSGTPAEVAACERVQQKAAVTLARLSRDPDVAREAVRLSCMSRLIELCRSPSERNSSDAVLVACLAALRRLAGVCPEGLQDSDFQQLVQPRLVDSFLLCSNMEESFV
[4]
  binding: binds
